The values that follow come from article doi:10.1101/2021.06.03.447020.

These are yes or no findings as the source states them, for the method shown. In cells and extracts the contact can be indirect. Binding calls can cover weak binding; strength is not graded here. Tags and fused reporters may be left off the sequences shown.

This experiment concerns the target T1, recombinant His-tagged Reg4 (not stated (human or mouse cDNA cloned)) (UniProt Q9D8G5).
T1 sequence: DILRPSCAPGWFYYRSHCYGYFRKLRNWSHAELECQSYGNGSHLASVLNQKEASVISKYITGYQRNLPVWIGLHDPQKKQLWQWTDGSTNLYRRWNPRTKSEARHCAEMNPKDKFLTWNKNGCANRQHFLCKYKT
Put plainly: pull-down.

In the case of flagellin of Salmonella Typhimurium, the binding entry was “binds”.
